Assay results as given in patent publication US20240150455A1.
Changes are numbered by the printed parent chain. Results are given in words; binding and its absence hold for the method and conditions named. Some binding calls cover weakened binding; strength is not graded here.

Protein sequences, listed by entry. Tags and fused reporters are not part of them.
UniProt P56747: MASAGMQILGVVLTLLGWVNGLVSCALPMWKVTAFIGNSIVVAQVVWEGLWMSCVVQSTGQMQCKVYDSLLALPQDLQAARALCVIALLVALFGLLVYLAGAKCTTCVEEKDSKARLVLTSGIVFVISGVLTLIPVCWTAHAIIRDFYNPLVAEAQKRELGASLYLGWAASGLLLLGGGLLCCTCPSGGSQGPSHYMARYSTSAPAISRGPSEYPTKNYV

B1: 9H3 hotspot mutant, LCDR1 NG mutated to QG and HCDR2 DG mutated to DA (antibody, V domains shown)
VH: EVQLVESGGDLVKPGGSLKLSCAASGFTFSIYGMSWVRQSPDRRLEWVATISRDASYTYFPDSVKGRFTISRDNAKNTLYLQMSSLKSEDTAMYYCVRLGDNDRGYAMDYWGQGTSVTVSS
VL: DVLMTQTPLSLPVSLGDQASISCRSSQSVVHVQGNTYLEWYLQKPGQSPRLLIYKVSNRFPGVPDRFSGSGSGTDFTLRISRVEAEDLGVYYCFQGSHVPRTFGGGTNLEIK
B2: 9H3 hotspot mutant, LCDR1 NG mutated to QG (antibody, V domains shown)
VH: B1 VH with A55G
VL: B1 VL
B3: 9H3 hotspot mutant, LCDR1 NG mutated to SG (antibody, V domains shown)
VH: B1 VH with A55G
VL: B1 VL with Q33S
B4: 9H3 hotspot mutant, LCDR1 NG mutated to NA (antibody, V domains shown)
VH: B1 VH with A55G
VL: B1 VL with Q33N, G34A

target: human CLDN6 (Claudin 6) (human) (UniProt P56747); assay: binding to CLDN6-expressing cells (FIG. 6: NEC8, Bewo)

binding	Binder
binds	B1
binds	B2
binds	B3
binds	B4
